Laboratory results published in patent US6965850B2, “Methods for modulating nuclear receptor coactivator binding” (The Regents of the University of California, priority 1998, dated 2005).
At least one peptide structure holds a part that was inferred or is arguable (an end, a ring closure or a residue). Peptide text beside a SMILES is read from it.

Target: T1, hTRβ LBD (Homo sapiens, UniProt P10828)
T1 sequence (P10828 202-461): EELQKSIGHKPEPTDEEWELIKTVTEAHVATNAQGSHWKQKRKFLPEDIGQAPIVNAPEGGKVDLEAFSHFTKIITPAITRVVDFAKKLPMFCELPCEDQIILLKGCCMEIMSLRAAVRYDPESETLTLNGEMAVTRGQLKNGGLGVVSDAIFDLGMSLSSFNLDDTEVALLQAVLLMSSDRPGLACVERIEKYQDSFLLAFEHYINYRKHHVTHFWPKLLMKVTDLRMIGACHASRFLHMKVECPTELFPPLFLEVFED
Test: Peptide competition of GRIP1 (563-767) interaction with hTRβ LBD
Type: binding
Parameters: made in house; host or cells: TR LBD: in vitro translation (reticulocyte lysate); GST-GRIP1 fragment: E. coli HB101
Method: For in vitro binding studies GR, TR and their derivatives were translated in the presence of [^35S]methionine using the TNT Coupled Reticulocyte System (Promega). Separate translations were performed in the presence and absence of 10 μM dexamethasone or 1 μM RU486 for GR and 10 μM triiodothyronine for TR. Expression was quantified by phosphoimager analysis (BAS2000, Fuji). For all binding assays 50 μl of a 20% bead suspension containing either 1.6 or 4.0 μM bound purified GST GRIP1 fragment (either 568-767 or 563-1121) was incubated with 0.2 μl or 1.4 μl in vitro transcribed and translated TR or GR, respectively. Binding was performed in the binding buffer described above supplemented with 20 μg/ml BSA and appropriate hormone. The chosen GST GRIP1 fragment concentrations were sufficient to bind either 70 or 100% of the TR derivatives. The reaction was incubated at 4° C. under rotation for 2 hours. In case of competition experiments, the appropriate concentration of peptides were added to the reaction before addition of receptors. However, no differences in the results were noted by adding the peptides after half of the incubation of the GST GRIP1 fragment with nuclear receptors. […] The fraction of bound nuclear receptors was determined by phosphoimager analysis.

Compound: CC[C@H](C)[C@H](NC(=O)[C@H](CCCCN)NC(=O)[C@H](Cc1c[nH]cn1)NC(=O)[C@H](CCCCN)NC(=O)[C@@H](N)CCC(=O)O)C(=O)N[C@@H](CC(C)C)C(=O)N[C@@H](Cc1c[nH]cn1)C(=O)N[C@@H](CCCNC(=N)N)C(=O)N[C@@H](CC(C)C)C(=O)N[C@@H](CC(C)C)C(=O)N[C@@H](CCC(N)=O)C(=O)N[C@@H](CC(=O)O)C(=O)N[C@@H](CO)C(=O)O [NR-box 2 peptide] (H-EKHKILHRLLQDS-OH; N-terminus and C-terminus assumed)
- competition with GRIP1 (563-767) containing functional NR-boxes 2 and 3 versus mutant with only functional NR-box 2: comparable affinity
- competition with TR LBD interaction with GRIP1 (563-767): increased affinity
